Patent EP2133323B1, “The production and use of 3,5-dicaffeoyl-4-malonylquinic acid” (I.R.B. Istituto Di Ricerche Biotecnologiche S.r.l., priority 2008, dated 2009)
At least one compound was matched to its structure with a doubt left.

What was measured:
[1] = test system: DNBS induced colitis model; experiment: DNBS induced colitis model in rats (anti-inflammatory activity); assay type: in vivo, Sprague-Dawley rats; details: four days after DNBS
Text: Evaluation of the anti- inflammatory activity of 3, 5-dicaffeoyl-4-malonylquinic acid has been determined on an in vivo induced colitis model. Colitis has been induced in rats using a colon inflammation model, stimulated by DNBS ([…] acid). After 4 days of induction of inflammation, the following parameters have been evaluated: determination of colon damage by means of morphological and histological analysis; determination of myeloperoxidase activity and determination of body weight. The animals used have been subdivided into four experimental groups (10 Sprague-Dawley rats weighing 200-250 g in each group) : • one control group, to which only carrier has been administered (CTR); • one group, to which DNBS plus carrier has been administered (DNBS); • one group, to which DNBS and 3,5-dicaffeoyl-4-malonylquinic acid has been administered: the compound has been administered orally at a concentration of 2 mg/kg for 4 consecutive days following the administration of DNBS; • one group, to which DNBS and 3,5-dicaffeoyl-4-malonylquinic acid has been administered: the compound has been administered orally at a concentration of 0.2 mg/kg for 4 consecutive days following the administration of DNBS. […]

[2] = test system: Malassezia furfur DSMZ4167; experiment: Multiple dilution antimicrobial assay, CFU count in culture-broth; assay type: cell-based; details: 30°C; for TO: sample at 0 days
Protocol: (§1) With the aim of identifying any potential antimicrobial activity in the compound 3,5-dicaffeoyl-4-malonylquinic acid, microbiological assays, generally known as multiple dilution assays, have been prepared. The results obtained from said assays have shown the antimicrobial activity of the compound against the following strains: • Staphylococcus aureus ATCC6538 • Malassezia furfur DSMZ4167
(§2) The compound has been tested at concentrations of 5 mg/ml, 2 mg/ml and 1 mg/ml.
(§3) The microbial strains used for testing have been inoculated into culture-broth (in Tryptone soy broth medium, for Malassezia furfur the culture medium has been supplemented with 2 ml/100 ml of olive oil) containing the test compound at the concentrations described above. In parallel with these tests, culture broths containing the microbial strain alone have been prepared (controls). The culture-broths have been incubated at 30°C for a period of 7 days. Samples of the various culture-broths have been taken at 0 and 7 days, with the aim of counting the number of CFU/ml in relation to the various microbial strains, by plating the cultures on solid medium. A certain number of serial dilutions have been prepared for each sample in order to determine the microbial load of each culture-broth. Each dilution has been assayed in triplicate on solid medium. Then number of CFUs reported in the table is the mean of the counts performed on the triplicate assays. Table 4: the effect of 3,5-dicaffeoyl-4-malonylquinic acid on the growth of Staphylococcus aureus ATCC 6538

[3] = test system: Staphylococcus aureus ATCC6538; experiment: as above; assay type: cell-based; details: 30°C; for TO: sample at 0 days; for T7d: sample at 7 days
Protocol: as §1, §2, §3

[4] = UV absorption (sun-screen activity), spectrophotometry 250-400 nm; assay type: physicochemical
Text: This example reports the test to determine the UV absorption of the molecule 3,5-dicaffeoyl-4-malonylquinic acid compared to a commercially available molecule widely used as a sun screen (PARSOL MCX).
The compounds have been examined in an aqueous solution of: • 0.2 M phosphate buffer pH 5.0 • 0.1 M HCl solution at pH 1.0.
The pH 5.0 buffer has been selected as the condition used most frequently in the preparation of sun screens. The pH 1.0 solution has been examined in order to also observe the stability of the compounds at extreme pH values.
The analyses have been conducted using a Shimadzu model UV 1601 spectrophotometer, analysing the spectrum from 250 nm to 400 nm in order to ascertain the absorption of UVA and UVB.
The results report the absorption values at maximum wavelength (λ Max) and at 330 nm, this being the wavelength most frequently used for quantitative measurements for the products in question.
The values are expressed in: • specific extinction, corresponding to the extinction at the given λ for a solution at a concentration of 1.0 µg/mL. • Epsilon = the molar absorption, calculated using the formula Epsilon = A/C*L [formula] where A is the absorption value in mAU, C is the concentration of the solution in moles and L is the path length of the solutions in cm (always 1 cm).

[5] = Antioxidant activity by the DPPH method; assay type: biochemical
Text: The antioxidant activity of the compound 3,5-dicaffeoyl-4-malonylquinic acid compared to known molecules such as ascorbic acid and rutin, has been determined by means of the DPPH method, according to the instructions reported in J. Buenger et al.; International Journal of Cosmetic Science, 2006, 28: 135-146.

O=C(O)CC(=O)OC1C(OC(=O)/C=C/c2ccc(O)c(O)c2)CC(O)(C(=O)O)CC1OC(=O)/C=C/c1ccc(O)c(O)c1 (centres unmarked) [3,5-dicaffeoyl-4-malonylquinic acid]
Body weight ([1]; DNBS + 0.2 mg/kg orally for 4 consecutive days): - 7.0 g | Body weight ([1]; DNBS + 2 mg/kg orally for 4 consecutive days): - 5.5 g | TO ([2]; 1mg/ml): 9.2 X 10^3 CFU/ml | T7d ([2]; 1mg/ml, sample at 7 days): 8.8 X 10^3 CFU/ml | TO ([2]; 2mg/ml): 9.2 X 10^3 CFU/ml | TO ([2]; 5mg/ml): 9.2 X 10^3 CFU/ml | TO ([3]; 1mg/ml): 1.9 X 10^5 CFU/ml | T7d ([3]; 1mg/ml): 2.3 X 10^5 CFU/ml | TO ([3]; 2mg/ml): 1.9 X 10^5 CFU/ml | T7d ([3]; 2mg/ml): 3.8 X 10^4 CFU/ml | TO ([3]; 5mg/ml): 1.9 X 10^5 CFU/ml

CCCCC(CC)COC(=O)C=Cc1ccc(OC)cc1 (centres unmarked) [PARSOL MCX, ethyl-hexyl methoxycinnamate, reference compound]
Spec. abs. (1 µg/ml) ([4]; in abs. EtOH, λ Max 310 nm): 87.26 (*) mAU | Spec. abs. (1 µg/ml) ([4]; pH 5.0, λ Max 312 nm, sol. EtOH/H3PO4 (1/1)): 48.85 mAU

C[C@@H]1O[C@@H](OC[C@H]2O[C@@H](Oc3c(-c4ccc(O)c(O)c4)oc4cc(O)cc(O)c4c3=O)[C@H](O)[C@@H](O)[C@@H]2O)[C@H](O)[C@H](O)[C@H]1O [Rutin]
IC50 [5]: 13.5 µM
